Test results reported in patent publication US12102685B2, “Immodulator peptides covalently modified with small molecules” (priority 2020, dated 2024).
Part of at least one peptide drawing is inferred or uncertain, most often the ends. Marks after values point to notes of the source that are not given here. Peptide text beside a SMILES is read from it. * marks the point of attachment. X6 = C=C(c1ccc(C(=O)*)cc1)c1cc2c(cc1C)C(C)(C)CCC2(C)C; X3 = O=C1c2cccc(O)c2C(=O)c2c(O)cc(C(=O)*)cc21; Pentanoyl(2-Pr) = CCCC(CCC)C(=O)*; X1 = COc1ccc(/C=C/C(=O)*)cc1O; Decanoyl = CCCCCCCCCC(=O)*

Experiments:
[1] = tested on: COL1 in HFF-1 dermal fibroblasts; test: Collagen-1 ELISA in HFF-1 dermal fibroblasts (x11A); assay type: cell-based; details: peptide 2 uM, 72 hour; control (buffer) = 100
Experimental: Immune modulation functions of immodulator peptides have potential untility in the field of cosmetics. HFF-1 cell line was obtained from American Type Culture Collection (ATCC). Cells were grown in a T-75 flask in DMEM Medium containing 10% fetal bovine serum and penicillin-streptomycin at 37° C. in a humidified, 5% CO2 incubator. Cells ([…], 2,000 cells/well) were plated in a 96-well plate and incubated overnight at 37° C. in a humidified, 5% CO2 incubator. Next day, […] of compounds were added (quadruplicate wells). After 72 hour incubation with the compound, supernatants were collected for Collagen-1 ELISA assay and cell viability was measured in a luminometer after the addition of […] CellTiterGlo reagent (Promega Inc, Madison, WI) as recommended by the manufacturer.
Collagen stimulating activity of immodulator peptides in HFF-1 dermal fibroblasts. Peptides were added to cells at 2 uM. COL1 immunoreactivity was measured in the supernatants of cultured cells by ELISA using a rabbit monoclonal anti-COL1 primary antibody (Abcam, Cambridge, MA). Control (buffer) value of immunoreactivity was set to 100.

burn wound length = test: Post-burn wound healing study (x8A); assay type: in vivo, rats
Experimental: Experiment x8A. Male rats treated with 4 mg/kg nephrilin peptide IM3N1 for 2 weeks in Example 5 were subsequently treated 3× weekly (Mon-Wed-Fri) for 4 weeks with vehicle (n=12) or with 1 mg/kg IM3vlp peptide (n=12) by subcutaneous bolus injection (200 uL volume). Longitudinal wound length between the hairlines was measured at 6 weeks, and this value was corrected for nose-to-ear length and width of each animal. The mean resulting value (in arbitrary units) is shown below.

Row | Structure (SMILES) | COL1 immunoreactivity in supernatant [1] | also measured
1 | C=C(c1ccc(C(=O)N[C@@H](CCCCN)C(=O)N[C@@H](CCCCN)C(=O)NCC(=O)N[C@@H](Cc2ccccc2)C(=O)N[C@@H](Cc2ccc(O)cc2)C(=O)N[C@@H](CCCCN)C(=O)N[C@@H](CCCCN)C(=O)N[C@@H](CCCCN)C(=O)N[C@@H](CCC(N)=O)C(=O)N[C@@H](CS)C(=O)N[C@@H](CCCNC(=N)N)C(=O)N2CCC[C@H]2C(=O)N[C@@H](CO)C(=O)N[C@@H](CCCCN)C(=O)NCC(=O)N[C@@H](CCCNC(=N)N)C(=O)N[C@@H](CCCCN)C(=O)N[C@@H](CCCNC(=N)N)C(=O)NCC(=O)N[C@@H](Cc2ccccc2)C(=O)N[C@@H](CS)C(=O)N[C@@H](Cc2c[nH]c3ccccc23)C(=O)O)cc1)c1cc2c(cc1C)C(C)(C)CCC2(C)C [IM3bex] (X6-KKGFYKKKQCRPSKGRKRGFCW-OH) | 102 | 
2 | CCCCCCCCCC(=O)N[C@@H](CCCCN)C(=O)N[C@@H](CCCCN)C(=O)NCC(=O)N[C@@H](Cc1ccccc1)C(=O)N[C@@H](Cc1ccc(O)cc1)C(=O)N[C@@H](CCCCN)C(=O)N[C@@H](CCCCN)C(=O)N[C@@H](CCCCN)C(=O)N[C@@H](CCC(N)=O)C(=O)N[C@@H](CS)C(=O)N[C@@H](CCCNC(=N)N)C(=O)N1CCC[C@H]1C(=O)N[C@@H](CO)C(=O)N[C@@H](CCCCN)C(=O)NCC(=O)N[C@@H](CCCNC(=N)N)C(=O)N[C@@H](CCCCN)C(=O)N[C@@H](CCCNC(=N)N)C(=O)NCC(=O)N[C@@H](Cc1ccccc1)C(=O)N[C@@H](CS)C(=O)N[C@@H](Cc1c[nH]c2ccccc12)C(=O)O [IM3dec] (Decanoyl-KKGFYKKKQCRPSKGRKRGFCW-OH) | 114 | 
3 | COc1ccc(/C=C/C(=O)N[C@@H](CCCCN)C(=O)N[C@@H](CCCCN)C(=O)NCC(=O)N[C@@H](Cc2ccccc2)C(=O)N[C@@H](Cc2ccc(O)cc2)C(=O)N[C@@H](CCCCN)C(=O)N[C@@H](CCCCN)C(=O)N[C@@H](CCCCN)C(=O)N[C@@H](CCC(N)=O)C(=O)N[C@@H](CS)C(=O)N[C@@H](CCCNC(=N)N)C(=O)N2CCC[C@H]2C(=O)N[C@@H](CO)C(=O)N[C@@H](CCCCN)C(=O)NCC(=O)N[C@@H](CCCNC(=N)N)C(=O)N[C@@H](CCCCN)C(=O)N[C@@H](CCCNC(=N)N)C(=O)NCC(=O)N[C@@H](Cc2ccccc2)C(=O)N[C@@H](CS)C(=O)N[C@@H](Cc2c[nH]c3ccccc23)C(=O)O)cc1O [IM3isf] (X1-KKGFYKKKQCRPSKGRKRGFCW-OH) | 131* | 
4 | N=C(N)NCCC[C@H](NC(=O)CNC(=O)[C@H](CCCCN)NC(=O)[C@H](CO)NC(=O)[C@@H]1CCCN1C(=O)[C@H](CCCNC(=N)N)NC(=O)[C@H](CS)NC(=O)[C@H](CCC(N)=O)NC(=O)[C@H](CCCCN)NC(=O)[C@H](CCCCN)NC(=O)[C@H](CCCCN)NC(=O)[C@H](Cc1ccc(O)cc1)NC(=O)[C@H](Cc1ccccc1)NC(=O)CNC(=O)[C@H](CCCCN)NC(=O)[C@H](CCCCN)NC(=O)c1cc(O)c2c(c1)C(=O)c1cccc(O)c1C2=O)C(=O)N[C@@H](CCCCN)C(=O)N[C@@H](CCCNC(=N)N)C(=O)NCC(=O)N[C@@H](Cc1ccccc1)C(=O)N[C@@H](CS)C(=O)N[C@@H](Cc1c[nH]c2ccccc12)C(=O)O [IM3rhn] (X3-KKGFYKKKQCRPSKGRKRGFCW-OH) | 68** | 
5 | CCCC(CCC)C(=O)N[C@@H](CCCCN)C(=O)N[C@@H](CCCCN)C(=O)NCC(=O)N[C@@H](Cc1ccccc1)C(=O)N[C@@H](Cc1ccc(O)cc1)C(=O)N[C@@H](CCCCN)C(=O)N[C@@H](CCCCN)C(=O)N[C@@H](CCCCN)C(=O)N[C@@H](CCC(N)=O)C(=O)N[C@@H](CS)C(=O)N[C@@H](CCCNC(=N)N)C(=O)N1CCC[C@H]1C(=O)N[C@@H](CO)C(=O)N[C@@H](CCCCN)C(=O)NCC(=O)N[C@@H](CCCNC(=N)N)C(=O)N[C@@H](CCCCN)C(=O)N[C@@H](CCCNC(=N)N)C(=O)NCC(=O)N[C@@H](Cc1ccccc1)C(=O)N[C@@H](CS)C(=O)N[C@@H](Cc1c[nH]c2ccccc12)C(=O)O [IM3vlp] ({Pentanoyl(2-Pr)}-KKGFYKKKQCRPSKGRKRGFCW-OH) | 157** | corrected longitudinal wound length at 6 weeks (burn wound length; 1 mg/kg IM3vlp sc 3x weekly weeks 2-6, burn group: Vehicle): 89.7 ± 17.7 arbitrary units; corrected longitudinal wound length at 6 weeks (burn wound length; 1 mg/kg IM3vlp weeks 2-6, burn group: Nephrilin IM3N1): 92.4 ± 19.5 arbitrary units; corrected longitudinal wound length at 6 weeks (burn wound length; 1 mg/kg IM3vlp weeks 2-6, burn group: Nephrilin IM3N1 + iron): 72.6 ± 12.8 arbitrary units; corrected longitudinal wound length at 6 weeks (burn wound length; 1 mg/kg IM3vlp weeks 2-6, burn group: Nephrilin IM3N1 + zinc): 83.2 ± 15.4 arbitrary units; wound length change versus vehicle (burn wound length; treating with IM3vlp from weeks 2-6): reduced by one-third
